Laboratory results: PubChem BioAssay AID2685 (National Center for Advancing Translational Sciences (NCATS), 2010)
Hit rate of the full screen: of about 320,000 compounds, about 2,100 (0.66%) were called active. The inconclusive results got no clear call from the source; some entries with a clear call stand among them for comparison. Calls follow the shape of the dose curve; as a rule, active = well fitted inhibition curve with a large enough effect in the signal ratio, with a control signal flat (not every such curve was filed as active); inconclusive = small, poorly fitted or top-dose-only effect, or effect the other way, or a change in a side signal; inactive = flat fitted curve, though single readings scatter; the % refers to the signal ratio. Where the call is inconclusive, the potency comes from a doubtful curve fit.

Assay: qHTS Assay for Lipid Storage Modulators in Drosophila S3 Cells
Conditions: BODIPY lipid droplet fluorescence, 18-24 h, cells fed with added oleic acid; lipid storage change, negative = inhibition: at 46.1 µM (top of the series) unless noted
Outline: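 Drosophila S3 cells got compounds at several concentrations plus oleic acid (400 uM solution). Laser-scanning cytometry with 488 nm excitation read lipid droplets at 500-530 nm and cells at 575-640 nm. Percent activity was relative to 20 uM Triacsin C.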
% is scaled to controls: 0 for no effect and ±100 for the full control effect; potency is read from the fitted curve at half-maximal effect.

Row | Compound | Potency | lipid storage change, negative = inhibition | outcome
1 | O=C(/C=C/c1ccc2ccccc2n1)c1cc(Cl)ccc1O | inconclusive: 6.51 µM [falling, full curve] | – | –
2 | S=C(NCCCN1CCOCC1)Nc1ccc(Cl)c(Cl)c1 | – | inconclusive: 13% | –
3 | C=C(C)/C=N/NC(=S)Nc1ccc(S(=O)(=O)N2CCOCC2)cc1 | – | inconclusive: -13.6% | –
4 | Cc1nc2sc3c(O)cc(=O)[nH]c3c2c(C)c1C | inconclusive: 16.4 µM [activator, single point] | – | –
5 | CCc1noc(C)c1C(=O)OCC(=O)Nc1c(F)cccc1F | – | inconclusive | –
6 | CC[C@@H](C)[C@H](CN[C@H](CNC)C(C)C)NC[C@@H](C)c1ccc(CC(C)C)cc1 | – | inconclusive: 32% | –
7 | CC(=O)Nc1ccc(S(=O)(=O)NCCC(=O)Nc2ncccc2C)cc1 | – | inconclusive: 16.6% | –
8 | Cc1ccc(C(=O)NC2=NCCS2)cc1Cl | inconclusive: 11.6 µM [activator, single point] | – | –
9 | O=C(N/N=C/c1ccc2ncccc2c1)c1ccco1 | inconclusive: 0.82 µM [falling, single point] | – | –
10 | O=C(COc1cccc([N+](=O)[O-])c1)NN1C(=O)c2ccccc2C1=O | – | inconclusive: 15.7% | –
11 | CCN(CC)S(=O)(=O)c1ccc(NS(=O)(=O)c2ccc(OC)c([N+](=O)[O-])c2)cc1 | – | inconclusive: 12.6% | –
12 | CC(C)N1CCC(N2CCN(Cc3ccc4nonc4c3)CC2CCO)CC1 (stereo not drawn) | – | inconclusive: 19.8% | –
13 | CC(C)COc1ccc(C/C(N)=N/n2cnnc2)cc1 | active: 20.6 µM | – | –
14 | Cc1ccc2nc(NCCNC(=O)c3ccccc3)c(C#N)cc2c1 | inconclusive: 4.61 µM [falling, single point] | – | –
15 | O=C(OCc1ccc(COC(=O)c2ccccn2)cc1)c1ccccn1 | – | inconclusive: 4.24% | –
16 | O=C(Cc1ccc(NC2=NC3CS(=O)(=O)CC3S2)cc1)NCc1ccc(Cl)cc1 (stereo not drawn) | – | inconclusive: 4.1% | –
17 | COC(=O)C1=C(CS(=O)(=O)c2ccc(C)cc2)NC(=O)NC1c1ccc(OC)c(OC)c1 (stereo not drawn) | inconclusive: 4.11 µM [activator, partial curve, poor fit] | – | –
18 | CS(=O)(=O)N(CC(=O)N1CCN(Cc2ccccc2)CC1)c1cccc(F)c1 | inconclusive: 0.259 µM [falling, full curve] | – | –
19 | CC(=O)Nc1ccc(C(=O)N/C(=C\c2ccccc2)C(=O)Nc2cccc(C(=O)O)c2)cc1 | – | inconclusive: -21.3% | –
20 | COCCNC(=O)C(C(=O)c1ccc(F)cc1)n1cc(C)ccc1=O (stereo not drawn) | – | inconclusive: -3.05% | –
21 | O=C(CCN1C(=O)C2C3CCC(C3)C2C1=O)Nc1ccccc1C(F)(F)F (stereo not drawn) | – | inconclusive: -18.4% | –
22 | O=C1c2ccccc2-c2onc3ccc(NCCCn4ccnc4)c1c23 | inconclusive: 29.1 µM [falling, single point] | – | –
23 | Nc1ccc2nc3c(=O)n(CCc4ccccc4)c(=O)[nH]c3nc2c1 | inconclusive: 29.1 µM [cytotoxic, single point] | – | –
24 | CSc1ncc(F)c(N(CCO)CCO)n1 | inconclusive: 2.59 µM [falling, single point] | – | –
25 | COc1ccc(C(=O)CSc2nc3nc(C)cc(C)n3n2)cc1OC | inconclusive: 1.64 µM [activator, partial curve] | – | –

Row | Compound | Potency | lipid storage change, negative = inhibition | outcome
26 | CCOc1ccc(NC(=S)NC(=O)c2c(Br)cnn2C)c([N+](=O)[O-])c1 | – | inconclusive: 0.31% | –
27 | O=C(Nc1ccc2c(c1)OCO2)C1CC(=O)N(c2ccccc2)C1 (stereo not drawn) | inconclusive: 29.1 µM [activator, partial curve] | – | –
28 | Cc1ccc(/C=N/NC(=O)Cc2ccc(O)cc2)s1 | – | inconclusive: 20% | –
29 | Cc1cccc(COc2coc(CN3CCN(C(=O)c4ccco4)CC3)cc2=O)c1 | inconclusive: 29.1 µM [falling, single point] | – | –
30 | CCC(C)(C)NC(=O)C(c1ccc(F)cc1)N(Cc1ccc(OC)cc1)C(=O)c1cnccn1 (stereo not drawn) | – | inconclusive: -18.8% | –
31 | NC(=O)Cc1nc2scc(-c3ccccc3)c2c(=O)[nH]1 | – | inconclusive: 6.1% | –
32 | Oc1ccc(Br)cc1C=Nc1ccc2c3c(cccc13)CC2 | inconclusive: 23.1 µM [falling, single point] | – | –
33 | CCOc1ccc(N2CC(C(=O)Nc3ccc(F)cc3F)CC2=O)cc1 (stereo not drawn) | – | inconclusive: 0.932% | –
34 | CCn1c(Cc2ccc(OC)cc2)nc2ccccc21 | inconclusive: 29.1 µM [activator, single point] | – | –
35 | COc1ccc(NC(=O)CN(C)CC(=O)Nc2ccc(Cl)cc2F)cc1 | – | inconclusive: -11% | –
36 | CCC(=O)N(Cc1cc2cc(OC)ccc2[nH]c1=O)c1ccc(C)cc1C | – | inconclusive: 16.7% | –
37 | CCOC(=O)c1nn(-c2ccc(F)cc2)c2nc(-c3ccccc3)c(C#N)c(=O)n12 | – | inconclusive: 11.9% | –
38 | CC(C)[C@@H](C(=O)N1CCCC1)N1C(=O)N2CCc3c([nH]c4ccccc34)[C@@]2(C)C1=O | – | inconclusive: 140% | –
39 | CCOc1ccc(-n2nc3ccc(NC(=O)CC)cc3n2)cc1 | inconclusive: 1.84 µM [activator, single point] | – | –
40 | O=C(CN(C(=O)CCC(=O)Nc1ccccn1)c1ccc2c(c1)OCO2)NCc1ccc(F)cc1 | – | inconclusive: 35.7% | –
41 | O=C(O)CCn1cc(/C=C\C(=O)c2ccc(Cl)cc2)c(-c2cccc(Br)c2)n1 | inconclusive: 13 µM [falling, single point] | – | –
42 | O=C(Nc1ccncc1)c1ccc(NS(=O)(=O)c2cccc(F)c2)cc1 | – | inconclusive: 12% | –
43 | Cc1n[nH]c(C)c1S(=O)(=O)N1CCCC(C(=O)Nc2ccc(Br)cc2)C1 (stereo not drawn) | – | inconclusive: 28.1% | –
44 | Cc1ccc(NC(=O)[C@@H]2CCC(=O)N2C2OC(=O)c3ccccc32)cc1Cl (stereo partly drawn) | – | inconclusive: 22.5% | –
45 | Cc1c(OCC(=O)NCC(O)c2ccccc2)ccc2c3c(c(=O)oc12)CCCC3 (stereo not drawn) | – | – | inactive [at 46.1 µM]
46 | CCOC(=O)c1ccc(NC(=O)c2nccnc2C(=O)O)cc1 | – | inconclusive: 2.68% [at 9.22 µM] | –
47 | O=C(O)C(Cc1ccccc1)N1C(=O)CCC1=O (stereo not drawn) | – | inconclusive: -4.9% | –
48 | O=C(CSc1nc2ccccc2n1S(=O)(=O)c1cccc([N+](=O)[O-])c1)NCc1cccs1 | – | inconclusive: -1.64% | –
49 | COc1ccccc1NC(=O)N1CCN(CCc2ccccc2)CC1 | – | inconclusive: 18.7% | –
50 | COc1ccc(C)cc1Nc1n[n+](-c2ccccc2)c(-c2ccc(NC(C)=O)cc2)s1 | – | inconclusive: -54% | –

Row | Compound | Potency | lipid storage change, negative = inhibition | outcome
51 | CC(=O)NCCC(=O)Nc1cccc(S(=O)(=O)N(C)c2ccccc2)c1 | inconclusive: 3.66 µM [activator, full curve, poor fit] | – | –
52 | Cc1ccc(C(=O)OCC(=O)Nc2ccc3[nH]c(=O)[nH]c3c2)cc1[N+](=O)[O-] | inconclusive: 0.731 µM [falling, full curve, poor fit] | – | –
53 | COc1ccccc1N(CC(=O)Nc1ccccc1C(=O)N1CCOCC1)S(C)(=O)=O | – | inactive: 5.39% | –
54 | COc1ccc2cc(C(=O)C3CCCN(Cc4cnc(N5CCOCC5)s4)C3)ccc2c1 (stereo not drawn) | inconclusive: 0.0052 µM [falling, full curve, poor fit] | – | –
55 | CCN(CC)N=Nc1ccc(C(=O)O)cc1 | inconclusive: 0.0046 µM [cytotoxic, full curve, poor fit] | – | –
56 | CCOC(=O)c1ccn(CSc2c(F)c(F)cc(F)c2F)n1 | – | inconclusive: 16.4% | –
57 | NNc1nc(Nc2ccc([N+](=O)[O-])cc2)nc(N2CCCCCC2)n1 | inconclusive: 29.1 µM [activator, single point] | – | –
58 | CN(C)S(=O)(=O)c1ccc(Cl)c(NC(=O)CN2CCCCCC2)c1 | inconclusive: 4.61 µM [falling, full curve, poor fit] | – | –
59 | Cc1cc(=O)[nH]c(SCC(=O)c2ccc3c(c2)NC(=O)CO3)n1 | – | inactive: 1.83% | –
60 | CCc1ccc(N(C(=O)CNC(=O)c2ccco2)C(C(=O)NC2CCCC2)c2cccnc2)cc1 (stereo not drawn) | inconclusive: 0.092 µM [falling, full curve, poor fit] | – | –
61 | CC(C)(C)c1ccc2c(c1)OC(C(=O)N/N=C\c1ccc[nH]1)CO2 (stereo not drawn) | inconclusive: 0.411 µM [activator, partial curve, poor fit] | – | –
62 | CC(=O)c1ccc(OCc2cc(C(=O)NC(C)Cc3ccccn3)no2)cc1 (stereo not drawn) | – | inconclusive: -41.3% | –
63 | CC(O)c1nc2ccccc2n1CCCOc1ccccc1 (stereo not drawn) | inconclusive: 4.11 µM [activator, full curve] | – | –
64 | CCOc1cc(/C=N\NC(=O)Cn2nnc3ccccc32)ccc1O | inconclusive: 0.116 µM [activator, single point] | – | –
65 | CC(CCc1ccccc1)NC(=O)/C=C/c1ccc(Cl)cc1 (stereo not drawn) | – | inconclusive: 22.7% | –
66 | COc1cccc(-c2noc(C3CCCN(C(=O)c4ccccc4OC)C3)n2)c1 (stereo not drawn) | – | inconclusive: -37.7% | –
67 | Cc1cc(/C=N/NC(=O)c2cccc(N(C)C)c2)c(C)n1-c1cc(C(=O)O)cc(C(=O)O)c1 | – | inconclusive: 3.58% | –
68 | COc1cccc(NC(=O)NC2(C(=O)N3CCN(C)CC3)CCCCC2)c1 | – | inconclusive: -73.7% | –
69 | COc1ccc(/C=C2\SC(=O)N(CCNC(=O)Cc3coc4cc(OC)ccc34)C2=O)cc1 | – | inconclusive: -36.7% | –
70 | O=S(=O)(Nc1ccc2c(c1)OCO2)c1ccc(Cl)cc1F | – | inconclusive: 1.32% | –
71 | COc1cc(C(=O)NCc2cc3ccccc3n2C)cc(OC)c1OC | – | inconclusive: 32.6% | –
72 | CCOc1cc(C(=O)NCc2ccc(-c3nc4ccccc4o3)cc2)cc(OCC)c1OCC | inconclusive: 5.8 µM [cytotoxic, single point] | – | –
73 | CCN(CC(=O)Nc1ccc(NC(C)=O)cc1)C(=O)c1ccc(C(=O)c2ccccc2)cc1 | – | inconclusive: 19.8% | –

One compound at a time, from the list above:
CCOc1cc(/C=N\NC(=O)Cn2nnc3ccccc32)ccc1O reads Potency: inconclusive: 0.116 µM [activator, single point]
Cc1cc(/C=N/NC(=O)c2cccc(N(C)C)c2)c(C)n1-c1cc(C(=O)O)cc(C(=O)O)c1 reads lipid storage change, negative = inhibition: inconclusive: 3.58%
COc1ccccc1N(CC(=O)Nc1ccccc1C(=O)N1CCOCC1)S(C)(=O)=O reads lipid storage change, negative = inhibition: inactive: 5.39%
COc1ccc2cc(C(=O)C3CCCN(Cc4cnc(N5CCOCC5)s4)C3)ccc2c1 (stereo not drawn) reads Potency: inconclusive: 0.0052 µM [falling, full curve, poor fit]
